From patent publication US20100119609A1, “METHODS, COMPOSITIONS, AND FORMULATIONS FOR THE TREATMENT OF THYROID EYE DISEASE” (priority 2006, published 2010)
Values joined by “and” are separate entries in the source; they are usually repeats but may differ in a detail not shown here. Equal values may be shown once.

How the values were obtained:
epididymal fat pad = assay: Epididymal fat pad mass in rats after local injection (in vivo lipolysis assay); design: species or system rat
[1] = system: cultured human adipocytes; assay: In vitro lipolysis assay (glycerol release) in cultured adipocytes; type: cell-based; settings: three hour incubation
Protocol: In the in vitro lipolysis assay, glycerol was detected in cell culture media via a spectrophotometric measurement after chemical oxidation with hydrogen peroxide. Glycerol was measured over a three hour time period. Levels of lipolysis in cultured human adipocytes were tested after exposure to a beta agonist alone, a glucocorticosteroid alone, or the combination of the two for one or more preincubation periods as described in more detail below.
Human subcutaneous adipocytes were used in the lipolysis assay. Adipose tissue was harvested from liposuction or lipectomy and pre-adipocytes were isolated as follows. Briefly, fat tissue was minced and incubated at 37° C. in Krebs-Ringer bicarbonate buffer containing 1% bovine serum albumin and 0.1% collagenase in an oxygen-rich shaking chamber (5% CO2; 75 strokes/min) for 1 hour. The suspension was filtered through a 400 tim nylon mesh and centrifuged for 1 mm at 100 g. The pre-adipocytes in the […] were washed twice with and then plated in 96 well plates at a density of cells/well. The pre-adipocytes were cultured in maintenance medium for seven days as they differentiated into adipocytes.
At −21 hours before the lipolysis assay, medium was removed from each well and replaced with 75 μl of Maintenance Medium containing appropriate drug or DMSO (vehicle) concentrations (see Experimental Design section below). Each test drug or control treatment was applied to 8 wells/group (12 treatment groups per 96-well plate). At −3 hours prior to the lipolysis assay, each well was washed two times with Wash Buffer (200 μl/wash), filled with test or control solutions made up in Assay Buffer (75 μl/well), and then incubated for three hours, i.e., until measurement of glycerol content in the Assay Buffer. For some groups, a drug was only added for the three hour incubation period (see Experimental and Control Groups Below).
The glycerol content of the Assay Buffer from each well following the incubation was used as an index for lipolysis, where an increase in glycerol indicated lipolysis. Glycerol levels were assayed colorimetrically via a commercial glycerol assay kit (Randox Laboratory, United Kingdom) and quantified by comparison to a glycerol serial dilution standard curve (3 μM-200 μM). Glycerol concentrations for each well were normalized to cell density.
In each of the following control or experimental groups n=8 corresponding to the glycerol measurements for 8 wells from a 96-well cell culture plate.

**Q.** For `COc1ccc(C[C@@H](C)NC[C@H](O)c2ccc(O)c(NC=O)c2)cc1` (racemic) [Formoterol, N-[2-hydroxy-5-[1-hydroxy-2-[1-(4-methoxyphenyl)propan-2-ylamino]ethyl]-phenyl]methanamide], which “Fat Pad Weight Δ (drug-vehicle), individual animal” value (epididymal fat pad; male Sprague Dawley rats, three daily injections, Formoterol 1.39 μg, Budesonide 4 μg, contralateral pad vehicle (2% PEG), listed as Formoterol alone) is on record?
**A.** Its value is -0.036 g and -0.138 g and 0.118 g and 0.166 g.

**Q.** And the “treatment effect on epididymal fat pad mass” value (epididymal fat pad; three day treatment period)?
**A.** The value was “no trend toward a treatment effect”.

**Q.** What about the “effect on lipolysis in cultured adipocytes (words)” value [1] of the same molecule?
**A.** Its value is “dose-dependent induction of lipolysis”.

**Q.** What about the “lipolysis compared with isoproterenol (positive control)” value ([1]; concentrations of 10^−6 M and above, isoproterenol 10^−6 M) of the same molecule?
**A.** Its value is “greater than that observed for isoproterenol”.

**Q.** And the “increase in lipolysis relative to negative control” value ([1]; glycerol in Assay Buffer, isoproterenol 10^−6 M)?
**A.** Its value is “greater than six fold”.

**Q.** And the “effect on lipolysis in cultured adipocytes (words)” value ([1]; listed as formoterol)?
**A.** Its value is “effectively induce lipolysis”.
